{
  "source": "paper PMC10127613",
  "about": "(mBio, 2023)",
  "target": "T1, Clr (Sinorhizobium meliloti) (UniProt Q92SD2)",
  "T1 sequence (looked up)": "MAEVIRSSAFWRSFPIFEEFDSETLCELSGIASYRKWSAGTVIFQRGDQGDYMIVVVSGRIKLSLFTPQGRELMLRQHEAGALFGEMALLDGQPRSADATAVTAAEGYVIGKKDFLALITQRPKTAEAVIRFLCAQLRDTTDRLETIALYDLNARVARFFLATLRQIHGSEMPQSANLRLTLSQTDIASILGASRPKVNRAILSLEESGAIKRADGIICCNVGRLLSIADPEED",
  "assay": "EMSA",
  "details": "1 mM cAMP, EMSA: 2 mM HEPES pH 7.0, 30 mM NaCl, 50 mM KCl, 850 ng salmon sperm DNA, 1 ug BSA, 20 ng Cy3-DNA, 3 ug Clr in 10 uL, room temperature, recombinant protein, residues 1-234, protein details: C-terminal His6 (pET36b, NdeI/XhoI), label: 5'-Cy3 on reverse strand",
  "note": "A negative result means that nothing was seen under these conditions. Tags and fusion partners may be left off the protein sequences shown. A weaker result is weaker than the reference pair of the same experiment.",
  "data": [
    {"sequence": "AGCGGATAACAATTTCACACAGGAAACAGCATATGACCATGATTACGCCAAGCTCGAAATTAACCCTCACTAAAGGGAACAAAAGCTGGAGCTCTTAAGCTTTCGTCAGGACATAATCCTTGTCGAGAACCGCGCCGCCGATCGCCAGCCGTTCCTCGTCCCCGCCCTGCCGGCGGCGGACATTGCCGCGGATTTTCGCAGCCTTGCCCACGACCGGAGCTGCTGCCGTCGAACGGCCGCCCGATACGGTGGCAAGCAGCAGGCCGCCAAGAAAGATCCGTCTCCTCATCTCGAACTGCCGCATCGGCTTCTCCGCTGCGTTTCGCAGCGCTCCCTGTTCGGCCTCCGGCTCCTTACGAGGATAGACCGAGGCGTGCCCGATGCAAGACGCATCTTGGGGGCTGCTTCAACTCACCGTTTCATCGCCTTCACCGCTGTTTCCCGCGGAACAGATGCCGGGTCGGGGCGGCCCTAGGATGGTGTCGGTTAGAGGGAGAGCACCATGAAGAAACACGTTGGATCGAGCTCTAGACTGCAGATGGTGAGCAAGGGCGAGGAGCTGTTCA (double strand) [SMc02177 / SMc02178]", "values": [
      {"measurement": "binding result", "value": "binds"}
    ]},
    {"sequence": "AGCGGATAACAATTTCACACAGGAAACAGCATATGACCATGATTACGCCAAGCTCGAAATTAACCCTCACTAAAGGGAACAAAAGCTGGAGCTCTTAAGCTTTCTACGCCGGCAACTGAGCATCTGCTTTTTTCTGGTTCGCCTGGTTGATATATTCATCTTTTGGCAACCAAACGGGCATCTAATCATTAATCTTGTAAGTGGTTCCCGCGGTAACGGCGGAGCACCAAAATGTGTTGTAGGCTGTATCCAATGTTTATCGGGCGGGCCGCATTTGTAGCCGGTTCAGTGCTATATCTCGATCATGGTGTCAGTCTTTCAGCGACCAGATGTGAGGCCGGCACCGGCATGTTTCGATGGCCGAATCGCTTCGGTTCAAGGAATATTCGGTAGTAGGGCTCGGCAGGGCTTTCTGCAGGGCCGTGTGCTAGAAGCTAATCTATTCGGCGGTGTCGGAGGTGCCGGATGCTGAACTGGACATTCACGTCTAGACTGCAGATGGTGAGCAAGGGCGAGGAGCTGTTCA (double strand) [SMc01003]", "values": [
      {"measurement": "binding result", "value": "binds"}
    ]},
    {"sequence": "AGCGGATAACAATTTCACACAGGAAACAGCATATGACCATGATTACGCCAAGCTCGAAATTAACCCTCACTAAAGGGAACAAAAGCTGGAGCTCTTAAGCTTTGCACAACAGCTGCGGCGATCTTTGCACGTCTGCCGCTGTAGGCTGGTACCACTTTGCGACGCGCCCTTGCGCGTCGTTTTCATGCGTGAAGTCGCTCTGTCCCCTCTGCGGCGTTTCCTTCGACACTGCGATCCCTTTTCCTGCGCCTTTGCAGCCCCCAGACCCACAACGCGGCCGCGCGCCGTCACCTCGACCAGGCCGATGACGGACTTCCACCGAGGGCGTTGCGGACAAGCGTACTTTTCCCTTCCCGAATCCGCGCTATAGTCACTGGGGGTTTGGCCCAAGGAAATGTCGCATGACGCTCACCCTCTATCTTTCTAGACTGCAGATGGTGAGCAAGGGCGAGGAGCTGTTCA (double strand) [gst10]", "values": [
      {"measurement": "binding result", "value": "no binding"}
    ]},
    {"sequence": "AGCGGATAACAATTTCACACAGGAAACAGCATATGACCATGATTACGCCAAGCTCGAAATTAACCCTCACTAAAGGGAACAAAAGCTGGAGCTCTTAAGCTTTTCTGAGAGCTCCTGGTGGTCTGCACGTTCCAGCTGATTTTCCCAGCATAGCTTCCACTGCACTTTTAAGGACATGTAAGAACTCCAGTGTGTTGTTTCTTCAAAGCACGATCGAGAGTGGTGTGTACCCGGCAAGTTACACCGGGGACGCCAACCGTAGCGCTGGACCGTTGGTCGAGCGCTTAGATGACGGCTCTAAATTCGGACCCATCCTGTACTTGTGAAACTTTTCTCGCGCCGCACCTTGATTCCATTAACTTCAGGGTTCTCTAATAGGACTCTGCAAGATTGGTAAAATTGATTGTTTGGATAACGATCATCTGCGATATGGATGCCGCACATGCGTTTTAGGGGCCTAGATCTAGACTGCAGATGGTGAGCAAGGGCGAGGAGCTGTTCA (double strand) [nodA / nodD1]", "values": [
      {"measurement": "binding result", "value": "binds more weakly"}
    ]},
    {"sequence": "AGCGGATAACAATTTCACACAGGAAACAGCATATGACCATGATTACGCCAAGCTCGAAATTAACCCTCACTAAAGGGAACAAAAGCTGGAGCTCTTAAGCTTTTGCCTATTTCGTCGCACGGGCGGAGGTGACGCCTGAATCGCTCGCCGCCAACCCGGACATCCGCCTCTATCCCGGCATGCCCGCGGAAGTGCTGATCGTGCACAAATCGCGCTCGGCAATCGACTACCTCGTCGCCCCAGTCTCCGACAGTTTCAACCGGGCTTTTCGGGAGGACTGACCTGTCTAGCTCTTGATATCTCTTCTCGTCGCAAATTACTTTAAAATTTGAAGCGCTTTGCCTGCATTTCCGTCAGAATTACTCCTAAAATTATATTGTACCAATATTGGCACAGCATGGAGATATGTTTCGGGCACCCTCTTTCTATCAAAATATCGCCGTTTTATTTTATGCATCTGTGTTGCGTTCGTAATTATTGCAGTGCACACTCCGGCACGCAATCCTCGGCTCCGTGCCGATGACGCATGCATCAAACCACGAAGAGGAGAAGCAGATGGCCACTTTGGAAGGCGGCGCATACTCTAGACTGCAGATGGTGAGCAAGGGCGAGGAGCTGTTCA (double strand) [wgeA]", "values": [
      {"measurement": "binding result", "value": "binds more weakly"}
    ]},
    {"sequence": "AGCGGATAACAATTTCACACAGGAAACAGCATATGACCATGATTACGCCAAGCTCGAAATTAACCCTCACTAAAGGGAACAAAAGCTGGAGCTCTTAAGCTTTTGCTCAACCTAATGCCCGTGCCGGTGCTTGATGGCGGCCATCTGATGTTCTATGCGGTCGAAGCGTTGCGCGGCAGGCCGGTCGGTCCTGCCGCACAGGATCTCGCATTCCGCATAGGCTTTGCCATGGTGCTCATGCTGACGGTTTTTGCGGCCTGGAACGATATCAACTGGCTCTTCGGATAGGGGCGGAGTCTTGGGCGGGAGCGGACATCGTTAAGGATTCGGGGAGCGAGTGAGTTTCGCCGGCTGCTCGATAACGGTTTGTTTACGATAATAAGAGGCCGTAGTGGCTGTTAAGCCACGGTTGGAATTGAAGTAAACAGAAATTAACGAGCTGACTTGCTTGTATGGGAAAAGCGGTTAAAACGGCAACCGTGACCGGAGTCGGCACGAAACTGCCGCGGGACGTTGGGAAAAGGTAAGATTTTGACATGAAAGCTGGTTCAAGGTTTTTGAACGCGGTGTCGTCTAGACTGCAGATGGTGAGCAAGGGCGAGGAGCTGTTCA (double strand) [omp]", "values": [
      {"measurement": "binding result", "value": "no binding"}
    ]}
  ]
}
